The list shows a part of the results.
Legend:
[1] = molecular target: Neu5Gc(a2-8)Neu5Gc(a2-6)Gal(b1-4)GlcNAc; experiment: glycan array binding signal (z-score within array); higher = stronger binding; settings: glycan notation: IUPAC condensed, linker removed
Method in brief: (§1)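 Columns mapping to the same glycan were averaged after glycan names were converted to IUPAC-condensed notation. The data come from 3228 arrays in the Consortium for Functional Glycomics database, limited to those with an available protein sequence. Binding is reported as a within-array Z-score averaged across arrays of one protein sequence and across linkers.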

[2] = molecular target: Neu5Gc(b2-6)Gal(b1-4)GlcNAc; experiment: as above; settings: glycan notation: IUPAC condensed, linker removed
Method in brief: as §1

B1: Aap brpt (Staphylococcus epidermidis) (protein)
chain: VDGDPITSTEEIPFDKKREFDPNLAPGTEKVVQKGEPGTKTITTPTTKNPLTGEKVGEGEPTEKITKQPVDEIVHYGGEEIKTGHKDEFDPNAPKGSQTTQPGKPGVKNPDTGEVVTPPVDDVTKYGPVDGDPITSTEEIPFDKKREFDPNLAPGTEKVVQKGEPGTKTITTPTTKNPLTGEKVGEGEPTEKITKQPVDEIVHYGGEEIKPGHKDEFDPNAPKGSQEDVPGKPGVKNPDTGEVVTPPVDDVTKYGPVDGDSITSTEEIPFDKKREFDPNLAPGTEKVVQKGEPGTKTITTPTTKNPLTGEKVGEGEPTEKITKQPVDEIVHYGGEQIPQGHKDEFDPNAPVDSKTEVPGKPGVKNPDTGEVVTPPVDDVTKYGPVDGDSITSTEEIPFDKKREFDPNLAPGTEKVVQKGEPGTKTITTPTTKNPLTGEKVGEGKSTEKVTKQPVDEIVEYGPTK
**Q.** Which results are given for B1?
**A.** glycan array binding signal (z-score) [1]: -0.091; glycan array binding signal (z-score) [2]: -0.254
